Test results taken from PubChem BioAssay AID445 (National Center for Advancing Translational Sciences (NCATS), 2006).
This is one part of the list. These are further read-outs of the screen, such as a control signal, another cell line or another target. No call is given for them. Most of these compounds were active or inconclusive in the main read-out, so they are no random draw. The note in brackets gives the kind of curve behind each potency; many fits are weak.

Assay: IkB Signaling
Conditions: ABC-DLBCL IkBa-CBG/CBR dual luciferase ratio (green luciferase fused to IkBa over red control in OCI-Ly3 lymphoma cells), 4 h; measured here: control luc red channel unless noted
Method in brief: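 Curves were fitted separately to fusion (green), unfused (red) and ratio luminescence, then classed by r2, magnitude and activity. Cells: OCI-Ly3, 4 h compound plus doxycycline at 37C; 10 uM MG-132 defined full response.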
In the case of `CCOc1ccc2oc(=O)cc(CN3CCN(c4cc(C)ccc4C)CC3)c2c1`, the AC50 is reported as 20 µM [falling, partial curve]. With `Cc1cccc(N2CCN(C(=O)C3CCN(S(=O)(=O)c4cccc5cccnc45)CC3)CC2C)c1` (stereo not given) the AC50 was 6.31 µM [falling, partial curve]. With `Cc1c(NC(=O)CSc2nncc3ccccc23)c(=O)n(-c2ccccc2)n1C` the AC50 was 20 µM [falling, partial curve]. In the case of `O=C(Nc1ccc(S(=O)(=O)NC2CCCCC2)cc1)c1ccc(Br)o1`, the AC50 is reported as 5.01 µM [falling, partial curve]. With `O=C(CSc1nnc(Cn2nnc3ccccc32)o1)N(Cc1ccc(F)cc1)c1ccccc1` the AC50 was 10 µM [falling, partial curve]. With `Cc1c2cnn(-c3ccccc3)c(=O)c2c(C)n1CC(=O)NCCc1ccc(Cl)cc1` the AC50 was 31.6 µM [falling, single point]. In the case of `COC(=O)C1CCN(C(=O)COC(=O)Cc2c[nH]c3ccccc23)CC1`, the AC50 is reported as 12.6 µM [falling, partial curve]. For `CCOC(=O)c1[nH]c2ccc(F)cc2c1NC(=O)CN1CCc2cc(OC)c(OC)cc2C1`, the AC50 was 10 µM [falling, partial curve]. For `CC(=O)N1CCc2c(sc3c2c(=O)n(-c2ccccc2)c(=O)n3CC(=O)Nc2ccccc2)C1`, the AC50 was 15.8 µM [falling, partial curve]. For `COc1cc(CNC(=O)c2ccc3c(c2)N(C)C(=O)C2CCCCN32)cc(OC)c1OC` (stereo not given), the AC50 was 10 µM [falling, partial curve]. With `COc1ccccc1-c1nnc(SCC(=O)Nc2ccccc2F)o1` the AC50 was 0.0501 µM [falling, full curve]. With `Cc1nc2sc(C(c3ccco3)N3CCC(Cc4ccccc4)CC3)c(O)n2n1` (stereo not given) the AC50 was 2 µM [falling, full curve]. For `CCC1CN(C(=O)N2CCC(C(=O)N3CCN(c4cccc(C)c4C)CC3)CC2)c2ccccc2O1` (stereo not given), the AC50 was 25.1 µM [falling, partial curve]. For `Cc1ccc(Cl)cc1NC(=O)CCC(=O)N1CC(C)Sc2ccccc21` (stereo not given), the AC50 was 25.1 µM [falling, single point]. With `CC(=O)N1c2ccc(S(=O)(=O)NCC3CCC(C(=O)Nc4ccc(C)cc4)CC3)cc2CC1C` (stereo not given) the AC50 was 12.6 µM [falling, partial curve]. In the case of `COc1cccc2cc3c(=O)n(-c4ccccc4)nc-3oc12`, the AC50 is reported as 0.00794 µM [falling, full curve]. In the case of `Cc1nc(C)c(C(=O)Nc2nc3c(C)cccc3s2)o1`, the AC50 is reported as 15.8 µM [falling, partial curve]. For `CCc1ccc(CNC(=O)c2ccc3c(c2)c(C)c(C)n3Cc2ccccc2)cc1`, the AC50 was 0.126 µM [rising, full curve, poor fit]. In the case of `COc1cccc2c1OC1(C)CC2NC(=O)N1c1cccc(C(=O)Nc2ccc3c(c2)OCCO3)c1` (stereo not given), the AC50 is reported as 2.51 µM [falling, full curve]. In the case of `O=C(NC1CCCCC1)c1ccc(CSc2nc3ccncc3n2Cc2cccc(F)c2)cc1`, the AC50 is reported as 25.1 µM [falling, single point]. In the case of `Cc1ccc2cccc(SCC(=O)N3CCOCC3)c2n1`, the AC50 is reported as 20 µM [rising, partial curve] [measured here: IkB-luc green channel]. For `CSc1ncccc1C(=O)OCC(=O)Nc1cc(C(F)(F)F)ccc1N1CCOCC1`, the AC50 was 39.8 µM [falling, single point]. For `COc1cc(C2Nc3ccc4ncccc4c3C3=C2C(=O)CCC3)ccc1O` (stereo not given), the AC50 was 31.6 µM [rising, partial curve] [measured here: IkB-luc green channel]. With `CCc1nn(CC(=O)N2CCN(c3cccc(C)c3)C(C)C2)c(=O)c2cc3sccc3n12` (stereo not given) the AC50 was 15.8 µM [falling, partial curve]. In the case of `COc1ccccc1C(=O)NC1(C(F)(F)F)NC(=O)N(CCc2ccccc2)C1=O` (stereo not given), the AC50 is reported as 15.8 µM [falling, partial curve]. In the case of `O=C(CSc1nnc2scc(-c3ccc(Cl)cc3)n12)Nc1ccc(F)cc1`, the AC50 is reported as 3.16 µM [falling, single point]. In the case of `Cc1nn(Cc2ccc(C(=O)NC3CCCCC3)o2)c(C)c1Br`, the AC50 is reported as 20 µM [falling, partial curve]. For `Cc1ccc(Nc2c(-c3cccnc3)nc3ccc(C)cn23)cc1`, the AC50 was 31.6 µM [falling, partial curve]. For `COc1cccc(C2=CC(c3ccccc3F)n3ncc(C(=O)Nc4ccc(F)cc4)c3N2)c1` (stereo not given), the AC50 was 15.8 µM [falling, partial curve]. For `COc1cccc(NC(=O)CSc2cc(C)c3ccccc3n2)c1`, the AC50 was 7.94 µM [falling, full curve]. For `COc1ccc(OCC(=O)N2CCN(C(=O)COc3ccc(Br)cc3)CC2)cc1`, the AC50 was 12.6 µM [falling, partial curve]. For `O=C(Cn1ncc2ccsc2c1=O)N1CCN(c2ccc(Cl)cc2)CC1`, the AC50 was 25.1 µM [falling, partial curve]. In the case of `Cc1ccc2c(Sc3ccc(Cl)cc3)c(C(=O)N3CCCCC3)[nH]c2c1`, the AC50 is reported as 39.8 µM [falling, single point]. With `CCCOc1ccc(NC(=O)CC2C(=O)N(c3cccc(OC)c3)C(=O)N2CCc2ccncc2)cc1` (stereo not given) the AC50 was 15.8 µM [falling, single point]. For `Nc1nn(S(=O)(=O)c2cccc3nsnc23)cc1-c1ccc(Br)cc1`, the AC50 was 6.31 µM [falling, partial curve]. With `CS(=O)(=O)c1ccc2nc(NC(=O)c3cccs3)sc2c1` the AC50 was 5.01 µM [falling, partial curve]. In the case of `O=C(Nc1nc(-c2ccco2)cs1)c1ccccc1`, the AC50 is reported as 12.6 µM [falling, partial curve]. In the case of `CCS(=O)(=O)c1ccc(C(=O)N2CCN(c3nc4c(OC)ccc(C)c4s3)CC2)cc1`, the AC50 is reported as 39.8 µM [falling, single point]. In the case of `CCOC(=O)c1nnn(-c2nonc2-n2cccc2)c1CN1CCC(C)CC1`, the AC50 is reported as 20 µM [falling, partial curve]. With `O=C(Nc1nc(-c2ccc3c(c2)OCO3)cs1)c1ccncc1` the AC50 was 7.94 µM [falling, full curve, poor fit].
